Data source: PubChem BioAssay AID743454 (Peter MacCallum Cancer Centre, 2014)
The whole screen tested about 18,000 reagents; this is a part drawn at random. Of all reagents, 450 (2.5%) are marked active. 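Single biological run; no consistent viability z cut-off exists, so the class columns, not z-scores, define the calls.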

Screen: 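Search for knock-downs that restore vorinostat killing in resistant colon cancer cells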 (primary screen)
System: human HCT116-VR colon cancer cells, selected for vorinostat resistance
Knock-down reagent: siRNA pool against human genes, 40 nM siRNA pool
Time to read-out: vorinostat for 24 h, read-out about 72 h after transfection
Treatment: vorinostat at 2.5 µM final
Measured: 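Two measures, CellTiter-Fluor viability and luminescent caspase 3/7 activity, each as fold change against same-plate mock wells, mean of duplicates, then screen-wide robust z-score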
Direction: viability robust z-score: higher = more viable cells than screen typical; caspase robust z-score: higher = more caspase 3/7 activity than screen typical
Hit rule: 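a knock-down is a hit when classed RV1 or RV2 for lowered viability, or CA1 or CA2 for caspase activation; those lethal without drug were dropped; hits were retested singly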

| viability hit class | caspase hit class | viability robust z-score | caspase robust z-score | Call | gene |
| --- | --- | --- | --- | --- | --- |
| no change | no change | -0.32 | 0.16 | inactive | SYNE2 |
| no change | no change | -2.24 | 4.42 | inactive | CCNB1 |
| no change | no change | 0.89 | -0.81 | inactive | ZNF182 |
| no change | no change | 0.14 | -0.63 | inactive | SLC44A2 |
| no change | no change | 1.29 | -0.32 | inactive | YPEL2 |
| no change | no change | -2.29 | 4.42 | inactive | TRIM69 |
| no change | no change | -0.05 | -0.54 | inactive | HOXB7 |
| no change | no change | -0.25 | 0.44 | inactive | SYCP2L |
| no change | no change | -0.66 | -1.02 | inactive | SLC6A7 |
| no change | no change | 0.24 | 0.52 | inactive | CD209 |
| no change | no change | 0.27 | -0.12 | inactive | PIM3 |
| no change | no change | 0.04 | 1.88 | inactive | NSMCE4A |
| no change | no change | -1.75 | 0.37 | inactive | GFER |
| no change | no change | 0.2 | -0.57 | inactive | PHLDB2 |
| no change | no change | -0.11 | 0.06 | inactive | TSHZ2 |
| no change | no change | 1.21 | 3.19 | inactive | ARSK |
| no change | no change | 0.47 | -0.12 | inactive | TMEM209 |
| no change | no change | -0.31 | -0.02 | inactive | LNP1 |
| no change | no change | 0.44 | -0.56 | inactive | ITLN2 |
| no change | no change | 0.38 | 3.78 | inactive | ACTMAP |
| no change | no change | 0.26 | 1.45 | inactive | STX17 |
| no change | no change | 0.07 | 0.37 | inactive | TOR3A |
| no change | no change | 1.71 | -0.74 | inactive | MRTFA |
| no change | no change | 0.3 | 0.42 | inactive | FIBIN |
| RV2 (reduced viability) | no change | -3.15 | 1.25 | active | DHDH |
| no change | no change | 0.18 | 0.06 | inactive | USP47 |
| no change | no change | -1.09 | -0.62 | inactive | FAP |
| no change | no change | -1.38 | 1.16 | inactive | WBP4 |
| no change | no change | 0.17 | 0.42 | inactive | MIEF2 |
| no change | no change | 0.82 | -0.92 | inactive | DRC2 |
| no change | no change | -0.43 | -0.99 | inactive | SLX1B |
| no change | no change | 1.19 | -0.9 | inactive | TMEM18 |
| no change | no change | 0.32 | -0.86 | inactive | RBM12 |
| no change | no change | 0.12 | 2.11 | inactive | EPHX1 |
| no change | no change | 0.3 | -0.63 | inactive | SMIM15 |
| no change | no change | -1.03 | 0.2 | inactive | PINX1 |
| no change | no change | 0.24 | -0.18 | inactive | ARAP3 |
| no change | no change | -4.13 | -0.64 | inactive | RPL13A |
| no change | no change | 1 | 1.17 | inactive | LYRM2 |
| no change | no change | 1.09 | -0.04 | inactive | HNRNPUL1 |
| no change | CA2 (caspase activation) | -4.95 | 6.46 | active | CHD4 |
| no change | no change | 0.1 | 0.62 | inactive | OSTM1 |
| no change | no change | -0.42 | -0.75 | inactive | TOLLIP |
| no change | no change | -0.7 | 0.2 | inactive | DUSP1 |
| no change | no change | 0.47 | -0.57 | inactive | MACO1 |
| no change | no change | -1.75 | 0.16 | inactive | TFPT |
| no change | no change | 2.12 | 0.02 | inactive | OR6S1 |
| no change | no change | -0.57 | 0.74 | inactive | GNG5 |
| no change | no change | -0.57 | 5.11 | inactive | KCNH2 |
| no change | no change | 0.7 | -0.2 | inactive | AASDH |
| no change | no change | -0.5 | 0.38 | inactive | PRR30 |
| no change | no change | -1.1 | 2.02 | inactive | AHNAK |
| no change | no change | -0.44 | -1.29 | inactive | SPTSSB |
| no change | no change | 0.24 | 0.16 | inactive | HMGN5 |
| no change | no change | 0.37 | -0.86 | inactive | CKMT1B |
| no change | no change | 0.8 | 1 | inactive | GBGT1 |
| no change | no change | -0.49 | -0.58 | inactive | CPSF7 |

Records above whose gene name begins with G or g (3):
| viability hit class | caspase hit class | viability robust z-score | caspase robust z-score | Call | gene |
| --- | --- | --- | --- | --- | --- |
| no change | no change | -1.75 | 0.37 | inactive | GFER |
| no change | no change | -0.57 | 0.74 | inactive | GNG5 |
| no change | no change | 0.8 | 1 | inactive | GBGT1 |
